PubChem BioAssay AID1487 (National Center for Advancing Translational Sciences (NCATS), 2009)
This is one part of the list. Shown are side measurements of this screen, not its main read-out; they come without a call. Compounds called inactive in the main read-out are mostly missing here. Potencies come from curve fits of mixed quality, noted in brackets.

Experiment: qHTS Assay for Modulators of Lamin A Splicing
Settings: HeLa LMNA splicing GFP/RFP minigene ratio, 48 h
Summary of the method: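 S3 HeLa stable clones carrying a lamin A-EGFP splicing minigene plus DsRed2 were seeded at 600 cells/well in Opti-MEM with 2% FBS, pin-dosed and incubated 48 h at 37°C. Acumen cytometry (488 nm) gave the GFP/RFP total-intensity ratio.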

[1] = measured here: GFP splicing reporter channel
[2] = measured here: RFP viability control channel

Row | SMILES | AC50 [1] | AC50 [2]
1 | Cc1cccc(NS(=O)(=O)c2ccc(NC(=O)N3CCCC3)cc2)c1 | 0.0224 µM [falling, full curve, poor fit] | –
2 | CCOC(=O)CCNC(=O)CNC(=O)OCc1ccccc1 | 3.98 µM [falling, single point] | –
3 | O=C(CN1CCN(c2ccc(O)cc2)CC1)NC1CCCc2ccccc21 (stereo not drawn) | – | 15.8 µM [rising, partial curve, poor fit]
4 | COc1ccc(Nc2nc(-c3c[nH]c4ccccc34)cs2)cc1 | 0.708 µM [rising, full curve, poor fit] | 1.12 µM [rising, full curve, poor fit]
5 | CC(C)(C)C1CCc2c(C(=O)NNC(=O)/C=C/C(=O)O)csc2C1 (stereo not drawn) | – | 15.8 µM [rising, single point]
6 | COc1ccc(C(=O)Nc2nc(-c3ccc(S(=O)(=O)N4CCOCC4)cc3)cs2)cc1 | 14.1 µM [rising, single point] | 11.2 µM [rising, single point]
7 | COc1cc(OC)cc(C(=O)N[C@H](C(=O)OCc2cc(=O)oc3cc(C)ccc23)C(C)C)c1 | 1.58 µM [rising, partial curve] | 5.62 µM [rising, single point]
8 | Cc1ccc(C(=O)C(C)CN2CCCCC2)cc1 (stereo not drawn) | 22.4 µM [falling, single point] | 12.6 µM [rising, partial curve, poor fit]
9 | O=C(c1ccco1)N1CCN(c2ccc(Cl)cc2)CC1 | – | 8.91 µM [rising, partial curve]
10 | COc1cc(C(=O)c2c(C)c(CCC#N)n3ccccc23)cc(OC)c1OC | – | 0.631 µM [rising, partial curve]
11 | O=C(N/N=C/c1ccc(Br)cc1)c1cc[n+](Cc2ccccc2)cc1 | 3.98 µM [falling, single point] | –
12 | O=C(CSc1nc2ccccc2c2nc3ccccc3n12)NCc1ccco1 | – | 10 µM [rising, partial curve, poor fit]
13 | CC1CN(S(=O)(=O)c2ccc(C(=O)Nc3sccc3C(N)=O)cc2)CC(C)O1 (stereo not drawn) | 6.31 µM [rising, full curve, poor fit] | 11.2 µM [rising, partial curve]
14 | CCCc1ccc(Oc2cn[nH]c2-c2ccc(O)cc2O)cc1 | 22.4 µM [rising, single point] | 15.8 µM [rising, partial curve]
15 | COc1cccc(-c2cc(C(F)(F)F)nc(NCc3ccco3)n2)c1 | 35.5 µM [rising, single point] | 35.5 µM [rising, single point]
16 | CCOC(=O)Cn1c(=O)n(-c2ccccc2OC)c2nc(-c3ccc(C(C)C)cc3)nc(C(N)=O)c21 | 14.1 µM [falling, partial curve, poor fit] | 10 µM [falling, partial curve, poor fit]
17 | O=C(CN1CCCCC1)Nc1nnc(-c2ccc([N+](=O)[O-])cc2)s1 | 1.26 µM [falling, full curve] | 1.12 µM [falling, full curve]
18 | CN1C(=O)CC(N2CCN(C(=O)CN3CCCC3)CC2)C1=O (stereo not drawn) | 35.5 µM [falling, single point] | 35.5 µM [falling, single point]
19 | COc1ccccc1-n1cnc2c(c1=O)c1nc3ccccc3nc1n2-c1ccc(C)cc1 | 8.91 µM [rising, partial curve, poor fit] | –
20 | Cc1cccc(-c2nc(CSCC(=O)NCc3cccs3)c(C)o2)c1 | – | 15.8 µM [rising, single point]
21 | COCCNC(=O)/C(C#N)=C/C(C)=C/c1ccccc1 | 1.41 µM [rising, partial curve] | 2.24 µM [rising, single point]
22 | CC(=O)[C@H]1CC[C@@H]2[C@H]3CC=C4C[C@@H](O)CC[C@]4(C)[C@H]3CC[C@]12C | 3.16 µM [falling, single point] | 2 µM [falling, full curve]
23 | O=S(=O)(c1cccc(NC(=S)N2CCN(c3ccc(F)cc3)CC2)c1)C(F)F | – | 10 µM [rising, partial curve, poor fit]
24 | O=C(Oc1ccccc1C(=O)Nc1ccccc1)c1ccc(Br)c([N+](=O)[O-])c1 | 15.8 µM [rising, partial curve, poor fit] | 14.1 µM [rising, single point]
25 | Cc1nc2ccn(Cc3ccco3)c(=O)c2cc1C(=O)NCc1ccc(F)cc1 | 1.41 µM [rising, full curve] | 1 µM [rising, full curve]
26 | Cc1c(Cl)cccc1-n1ncc(C(=O)N2CCOCC2)c1C1CCN(C(=O)OC(C)(C)C)CC1 | 0.282 µM [rising, full curve, poor fit] | –

Part of the list above in another layout.
Cc1cccc(NS(=O)(=O)c2ccc(NC(=O)N3CCCC3)cc2)c1
  AC50 [1]: 0.0224 µM [falling, full curve, poor fit]
CCOC(=O)CCNC(=O)CNC(=O)OCc1ccccc1
  AC50 [1]: 3.98 µM [falling, single point]
O=C(CN1CCN(c2ccc(O)cc2)CC1)NC1CCCc2ccccc21 (stereo not drawn)
  AC50 [2]: 15.8 µM [rising, partial curve, poor fit]

(cont.)

Row | SMILES | AC50 [1] | AC50 [2]
27 | O=C(NC(=S)N1CCN(C/C=C/c2ccccc2)CC1)c1ccco1 | 11.2 µM [rising, partial curve, poor fit] | –
28 | Cc1ccc(OCC(=O)OCc2cc(=O)n3nc(C4CC4)sc3n2)cc1 | – | 12.6 µM [falling, partial curve]
29 | CCOc1ncccc1C(=O)NCc1ccc(OC)cc1 | – | 12.6 µM [rising, single point]
30 | Cc1ccc(-n2nc(C)c(Sc3ccccc3[N+](=O)[O-])c2N)cc1 | 14.1 µM [rising, single point] | 35.5 µM [rising, single point]
31 | COc1ccc(C(=O)NC(c2ccc(Cl)cc2)c2cc(Cl)c3cccnc3c2O)cc1 (stereo not drawn) | 1.41 µM [falling, full curve, poor fit] | 1 µM [falling, full curve, poor fit]
32 | COc1ccc(N2CC(O)=C(c3nc(-c4ccc(F)cc4)cs3)C2=N)cc1Cl | – | 3.55 µM [rising, partial curve, poor fit]
33 | N=c1c2c(n(Cc3cccc(Cl)c3)c3c1CCC3)CCCC2 | 2.82 µM [rising, single point] | 2.51 µM [rising, partial curve]
34 | Cc1ccccc1NC(=O)CSc1nc2cc3c(cc2cc1C)CCC3 | 7.94 µM [falling, partial curve] | 8.91 µM [falling, partial curve]
35 | CCCCCCCCS(=O)CCC(=O)O (stereo not drawn) | – | 0.562 µM [falling, full curve]
36 | COc1cc(Cl)c(C)cc1NC(=O)c1cnc(N2CCOCC2)c2ccccc12 | – | 14.1 µM [rising, single point]
37 | CC(=O)c1ccc(NC(=O)C2Cc3ccccc3CN2C(=O)c2ccccc2)cc1 (stereo not drawn) | – | 0.00447 µM [rising, full curve, poor fit]
38 | O=C(C1CCC(CNc2nc(=S)[nH]c3ccccc23)CC1)N1CCN(c2ccccn2)CC1 (stereo not drawn) | 0.501 µM [rising, partial curve] | 14.1 µM [rising, partial curve]
39 | CCOc1ccc(NC(=O)c2ccc(F)c(S(=O)(=O)N3CCN(c4ccccn4)CC3)c2)cc1 | 4.47 µM [rising, full curve, poor fit] | 6.31 µM [rising, full curve]
40 | O=S(=O)(Nc1nc2ccccc2nc1N1CCN(c2ccccc2)CC1)c1ccc(F)cc1 | 20 µM [rising, single point] | 35.5 µM [rising, single point]
41 | Cc1ccc(-c2noc(CSc3nnc(Cc4cccs4)n3-c3ccccc3)n2)cc1 | 3.16 µM [rising, partial curve, poor fit] | 15.8 µM [rising, partial curve, poor fit]
42 | COc1ccc(C(=O)NC2(C(F)(F)F)NC(=O)N(CCCc3ccccc3)C2=O)c(OC)c1OC (stereo not drawn) | 10 µM [rising, partial curve, poor fit] | 20 µM [rising, partial curve]
43 | O=C(Nc1ccc(Cl)cc1)N1CCC(c2ccccc2)C1 (stereo not drawn) | – | 35.5 µM [falling, single point]
44 | Oc1ccc(/C=N/Nc2nc(N3CCCC3)nc(N3CCCC3)n2)cc1O | 31.6 µM [falling, single point] | 31.6 µM [falling, single point]
45 | CCOc1ccccc1NC(=O)c1c(NCc2sccc2C)sc2c1CCC(C)C2 (stereo not drawn) | 20 µM [falling, single point] | –
46 | Cc1cc(C(=O)N2CCN(c3cccc(Cl)c3)CC2)c(C)o1 | – | 5.62 µM [rising, single point]
47 | N#Cc1sc2nc3c(c(-c4ccco4)c2c1N)CCCC3 | 12.6 µM [rising, single point] | –
48 | O=C(CNC(=S)N(Cc1ccccc1F)C1CCCCC1)NCCCN1CCOCC1 | 3.98 µM [falling, single point] | –
49 | CN(C)c1nc(N(C)C)nc(N(C#N)CCOc2ccccc2)n1 | – | 17.8 µM [rising, single point]
50 | c1ccc2c(c1)OCCOCCOCCOCCOc1ccccc1OCCOCCOCCO2 | 0.224 µM [rising, full curve, poor fit] | 0.282 µM [rising, full curve]
51 | Cc1ccc2[nH]c(SCC(=O)N3CCOCC3)nc2c1C | 14.1 µM [falling, single point] | –
52 | O=C1C(=C(O)c2ccccc2)C(=O)c2ccccc21 | 14.1 µM [falling, partial curve, poor fit] | 17.8 µM [falling, partial curve]
